# Experimental data published in article PMC7862700.
# The entries are a selection whose mix differs from that of the whole data set. At the low end of the ranking, values are background and their order means little.
# What was measured:
# Assay in all cases: DAPPL (digital affinity profiling via proximity ligation, sequencing)
# Conditions in all cases: 10 mM Tris-HCl pH 7.5, 50 mM NaCl, 1 mM DTT, 4% glycerol, room temperature, 30 min; GST-TFs on glutathione beads, 16-mer random dsDNA library, 0.1% …; high values mean tight binding; double strand, one strand shown; scale: fold enrichment (6-mer frequency, TF over GST control)
# ELK1 = target: T1, ELK1 (UniProt P19419)
# T1 sequence: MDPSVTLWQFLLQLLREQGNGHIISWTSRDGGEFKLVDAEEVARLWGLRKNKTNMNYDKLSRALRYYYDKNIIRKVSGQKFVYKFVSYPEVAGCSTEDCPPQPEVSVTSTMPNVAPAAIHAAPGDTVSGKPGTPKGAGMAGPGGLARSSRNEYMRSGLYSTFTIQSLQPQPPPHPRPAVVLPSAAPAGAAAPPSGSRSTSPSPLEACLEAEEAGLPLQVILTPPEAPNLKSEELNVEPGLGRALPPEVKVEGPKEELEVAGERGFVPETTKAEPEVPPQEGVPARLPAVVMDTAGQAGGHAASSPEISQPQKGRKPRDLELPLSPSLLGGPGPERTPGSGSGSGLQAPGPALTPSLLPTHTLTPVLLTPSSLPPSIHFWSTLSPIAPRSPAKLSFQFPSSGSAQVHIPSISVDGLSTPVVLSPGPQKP
# ELK3 = target: T2, ELK3 (UniProt P41970)
# T2 sequence: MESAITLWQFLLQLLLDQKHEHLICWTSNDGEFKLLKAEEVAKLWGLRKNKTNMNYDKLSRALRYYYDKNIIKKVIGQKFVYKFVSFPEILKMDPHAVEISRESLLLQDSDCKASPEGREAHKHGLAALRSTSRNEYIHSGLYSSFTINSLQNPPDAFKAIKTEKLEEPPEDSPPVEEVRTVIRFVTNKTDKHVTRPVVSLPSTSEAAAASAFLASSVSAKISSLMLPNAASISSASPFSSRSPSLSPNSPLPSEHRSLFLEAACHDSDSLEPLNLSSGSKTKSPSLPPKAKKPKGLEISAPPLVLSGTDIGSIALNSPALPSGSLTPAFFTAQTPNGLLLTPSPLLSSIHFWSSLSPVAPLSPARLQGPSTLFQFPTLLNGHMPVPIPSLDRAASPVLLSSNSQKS
# SPIC = target: T3, SPIC (UniProt Q8N5J4)
# T3 sequence: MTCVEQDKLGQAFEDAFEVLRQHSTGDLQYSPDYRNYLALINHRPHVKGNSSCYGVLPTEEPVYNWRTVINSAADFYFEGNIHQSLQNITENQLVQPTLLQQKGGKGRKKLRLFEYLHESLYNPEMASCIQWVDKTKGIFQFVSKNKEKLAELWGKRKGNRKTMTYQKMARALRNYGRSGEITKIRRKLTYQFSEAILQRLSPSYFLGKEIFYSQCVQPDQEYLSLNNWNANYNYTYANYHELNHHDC
# ETS2 = target: T4, ETS2 (UniProt P15036)
# T4 sequence: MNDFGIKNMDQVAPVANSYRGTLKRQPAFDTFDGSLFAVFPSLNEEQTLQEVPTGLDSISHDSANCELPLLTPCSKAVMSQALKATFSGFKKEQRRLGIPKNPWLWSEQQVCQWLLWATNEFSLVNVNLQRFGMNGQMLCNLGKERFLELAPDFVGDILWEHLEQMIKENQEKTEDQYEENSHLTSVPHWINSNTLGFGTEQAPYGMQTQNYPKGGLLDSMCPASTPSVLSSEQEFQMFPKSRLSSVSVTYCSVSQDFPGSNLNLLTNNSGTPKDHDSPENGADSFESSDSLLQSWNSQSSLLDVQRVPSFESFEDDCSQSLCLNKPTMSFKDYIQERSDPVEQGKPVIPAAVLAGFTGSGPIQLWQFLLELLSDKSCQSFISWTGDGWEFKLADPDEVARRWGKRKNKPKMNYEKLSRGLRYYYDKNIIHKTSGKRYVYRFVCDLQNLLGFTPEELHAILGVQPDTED
# ETV3 = target: T5, ETV3 (UniProt P41162-2)
# T5 sequence: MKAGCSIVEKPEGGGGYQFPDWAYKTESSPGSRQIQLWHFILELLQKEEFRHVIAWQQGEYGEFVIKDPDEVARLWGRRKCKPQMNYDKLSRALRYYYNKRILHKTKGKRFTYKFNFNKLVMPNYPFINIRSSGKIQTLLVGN
Sequence,binding signal (ELK1),binding signal (ELK3),binding signal (SPIC),binding signal (ETS2),binding signal (ETV3)
TTGAGT,0.759,0.641,0.721,0.675,0.73
GTGCGG,0.675,0.556,0.588,0.643,0.715
ACACGT,0.857,0.789,0.839,0.799,0.773
GTCCGT,0.529,0.533,0.505,0.522,0.531
CCGAGG,0.744,0.737,0.58,0.725,0.74
TAGGTG,0.97,0.986,0.849,0.893,0.861
AGTTAG,0.863,0.796,0.765,0.831,0.791
GTGATA,0.724,0.727,0.645,0.755,0.691
AGTGAT,0.902,0.947,0.9,0.88,0.876
ACGTGT,0.61,0.671,0.637,0.667,0.673

# Record cards, as listed above. Values in the order: binding signal (ELK1)	binding signal (ELK3)	binding signal (SPIC)	binding signal (ETS2)	binding signal (ETV3)
# AGTGAT is listed with 0.902	0.947	0.9	0.88	0.876
# GTGATA is listed with 0.724	0.727	0.645	0.755	0.691
